{"sequences": {"note": "Sequences of proteins named here, by UniProt entry; tags and fusion partners are left off. A change or cut given only in a name is not applied to a line headed by its entry.", "UniProt P32519": "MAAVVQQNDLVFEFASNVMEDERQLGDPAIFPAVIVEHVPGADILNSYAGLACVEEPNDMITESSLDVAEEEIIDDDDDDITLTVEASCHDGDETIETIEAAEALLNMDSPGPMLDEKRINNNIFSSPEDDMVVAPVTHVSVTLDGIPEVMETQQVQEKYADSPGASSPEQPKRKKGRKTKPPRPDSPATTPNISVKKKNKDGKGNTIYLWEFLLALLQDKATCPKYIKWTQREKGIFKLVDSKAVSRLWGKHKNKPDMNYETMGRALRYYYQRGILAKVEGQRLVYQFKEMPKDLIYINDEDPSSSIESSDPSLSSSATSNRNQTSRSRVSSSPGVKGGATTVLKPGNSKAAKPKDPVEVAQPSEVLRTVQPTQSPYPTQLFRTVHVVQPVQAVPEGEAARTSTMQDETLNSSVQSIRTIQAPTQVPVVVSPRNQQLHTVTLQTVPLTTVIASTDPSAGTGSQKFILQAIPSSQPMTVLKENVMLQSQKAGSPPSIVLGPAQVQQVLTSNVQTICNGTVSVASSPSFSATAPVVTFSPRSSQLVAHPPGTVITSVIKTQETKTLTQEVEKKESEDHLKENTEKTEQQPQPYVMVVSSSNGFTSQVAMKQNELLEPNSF", "UniProt P50549": "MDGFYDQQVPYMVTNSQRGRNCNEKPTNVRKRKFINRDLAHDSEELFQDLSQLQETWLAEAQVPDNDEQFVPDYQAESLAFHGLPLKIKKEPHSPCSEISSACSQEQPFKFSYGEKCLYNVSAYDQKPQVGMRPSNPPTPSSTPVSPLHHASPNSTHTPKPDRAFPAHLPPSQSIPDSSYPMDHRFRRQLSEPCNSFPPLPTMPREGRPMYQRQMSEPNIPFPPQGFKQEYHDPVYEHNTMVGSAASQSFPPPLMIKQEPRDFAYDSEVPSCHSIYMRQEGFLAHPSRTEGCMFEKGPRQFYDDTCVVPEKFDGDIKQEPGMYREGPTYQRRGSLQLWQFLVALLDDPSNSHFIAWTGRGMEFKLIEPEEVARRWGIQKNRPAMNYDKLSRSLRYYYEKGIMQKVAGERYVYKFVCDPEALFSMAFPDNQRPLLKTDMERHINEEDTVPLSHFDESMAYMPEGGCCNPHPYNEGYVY"}, "source": "paper PMC7862700", "note": "The list shows a part of the results, in another mix than the full data. For some assays here: At the low end of the ranking, values are background and their order means little. This is one part of the list. For some assays here: The source does not settle which construct or isoform was used.", "data": [{"molecular_target": "T1, ERG (UniProt P11308)", "T1 sequence": "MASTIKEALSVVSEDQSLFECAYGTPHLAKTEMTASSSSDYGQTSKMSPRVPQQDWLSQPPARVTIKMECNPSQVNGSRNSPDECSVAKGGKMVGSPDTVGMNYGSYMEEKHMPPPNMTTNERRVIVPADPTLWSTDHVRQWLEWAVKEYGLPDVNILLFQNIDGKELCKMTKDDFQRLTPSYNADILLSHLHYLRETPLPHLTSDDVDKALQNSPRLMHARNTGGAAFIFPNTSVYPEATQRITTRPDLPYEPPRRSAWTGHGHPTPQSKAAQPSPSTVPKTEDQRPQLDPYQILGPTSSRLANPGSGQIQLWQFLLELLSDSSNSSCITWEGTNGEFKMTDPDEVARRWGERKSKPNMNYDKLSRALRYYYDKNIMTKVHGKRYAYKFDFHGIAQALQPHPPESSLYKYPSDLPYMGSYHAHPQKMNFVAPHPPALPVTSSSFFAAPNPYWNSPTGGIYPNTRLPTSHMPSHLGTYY", "experiment": "DAPPL (digital affinity profiling via proximity ligation, sequencing)", "details": "10 mM Tris-HCl pH 7.5, 50 mM NaCl, 1 mM DTT, 4% glycerol, room temperature, 30 min; GST-TFs on glutathione beads, 16-mer random dsDNA library, 0.1% …; high values mean tight binding; double strand, one strand shown; scale: fold enrichment (6-mer frequency, TF over GST control)", "values": [{"sequence": "GATCTA", "binding signal": 0.943}, {"sequence": "GCCCTG", "binding signal": 1}, {"sequence": "TCTGAG", "binding signal": 0.96}, {"sequence": "TTTCGT", "binding signal": 1.23}, {"sequence": "GATAGC", "binding signal": 1.02}, {"sequence": "AGAAGA", "binding signal": 0.862}, {"sequence": "CTTGGC", "binding signal": 1.12}, {"sequence": "ACACCA", "binding signal": 1.01}, {"sequence": "GCGCCG", "binding signal": 0.98}, {"sequence": "TAATGG", "binding signal": 1.22}, {"sequence": "CCTCAA", "binding signal": 1.26}, {"sequence": "AAGGCT", "binding signal": 0.963}, {"sequence": "TAAACC", "binding signal": 1.21}, {"sequence": "TGGGCA", "binding signal": 0.976}, {"sequence": "ACTGTA", "binding signal": 0.965}, {"sequence": "GTGTTG", "binding signal": 0.843}, {"sequence": "ATGTGG", "binding signal": 1.21}, {"sequence": "GTAATC", "binding signal": 1.08}, {"sequence": "CCACAG", "binding signal": 0.91}, {"sequence": "TTGGCA", "binding signal": 1.15}, {"sequence": "GACCAA", "binding signal": 0.901}, {"sequence": "TGAAAG", "binding signal": 0.948}, {"sequence": "CGCTGT", "binding signal": 0.947}, {"sequence": "ATGCTG", "binding signal": 0.949}, {"sequence": "GATGGA", "binding signal": 0.858}, {"sequence": "GGTTCT", "binding signal": 0.911}, {"sequence": "CGACGG", "binding signal": 0.998}, {"sequence": "ACGCGC", "binding signal": 0.92}, {"sequence": "ACCTAG", "binding signal": 0.998}, {"sequence": "TGCCGA", "binding signal": 1.1}, {"sequence": "CGAAGT", "binding signal": 0.928}, {"sequence": "CACCCT", "binding signal": 1.16}, {"sequence": "AGGGTT", "binding signal": 0.875}, {"sequence": "AAGGCA", "binding signal": 0.969}, {"sequence": "GTACTG", "binding signal": 1.09}, {"sequence": "CCAAGC", "binding signal": 0.993}, {"sequence": "ATAGAC", "binding signal": 0.958}, {"sequence": "TCGAAC", "binding signal": 0.999}, {"sequence": "TCTAAC", "binding signal": 1.22}, {"sequence": "GGTATG", "binding signal": 0.979}]}, {"molecular_target": "ELF1 (UniProt P32519)", "experiment": "DAPPL (digital affinity profiling via proximity ligation, sequencing)", "details": "10 mM Tris-HCl pH 7.5, 50 mM NaCl, 1 mM DTT, 4% glycerol, room temperature, 30 min; GST-TFs on glutathione beads, 16-mer random dsDNA library, 0.1% …; high values mean tight binding; double strand, one strand shown; scale: fold enrichment (6-mer frequency, TF over GST control)", "values": [{"sequence": "AGAAGA", "binding signal": 0.947}, {"sequence": "GCGCCG", "binding signal": 0.897}, {"sequence": "GTGTTG", "binding signal": 0.931}, {"sequence": "CCACAG", "binding signal": 0.965}, {"sequence": "TTGGCA", "binding signal": 1.13}, {"sequence": "GATGGA", "binding signal": 0.924}, {"sequence": "CGAAGT", "binding signal": 0.912}, {"sequence": "AGGGTT", "binding signal": 0.979}]}, {"molecular_target": "T2, ETV4 (UniProt P43268)", "T2 sequence": "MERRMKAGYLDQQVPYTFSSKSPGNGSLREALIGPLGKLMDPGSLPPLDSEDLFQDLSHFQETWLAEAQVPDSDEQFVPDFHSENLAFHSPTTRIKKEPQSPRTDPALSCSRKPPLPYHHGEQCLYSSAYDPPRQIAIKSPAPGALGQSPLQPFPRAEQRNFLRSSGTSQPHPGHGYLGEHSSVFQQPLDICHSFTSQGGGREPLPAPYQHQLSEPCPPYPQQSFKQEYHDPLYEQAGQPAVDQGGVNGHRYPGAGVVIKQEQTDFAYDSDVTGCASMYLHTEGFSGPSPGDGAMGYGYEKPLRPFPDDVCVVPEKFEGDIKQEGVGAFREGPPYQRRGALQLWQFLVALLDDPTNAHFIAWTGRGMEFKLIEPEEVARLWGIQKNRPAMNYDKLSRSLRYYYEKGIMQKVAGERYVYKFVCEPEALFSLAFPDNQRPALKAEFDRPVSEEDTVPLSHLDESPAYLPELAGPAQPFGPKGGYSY", "experiment": "DAPPL (digital affinity profiling via proximity ligation, sequencing)", "details": "10 mM Tris-HCl pH 7.5, 50 mM NaCl, 1 mM DTT, 4% glycerol, room temperature, 30 min; GST-TFs on glutathione beads, 16-mer random dsDNA library, 0.1% …; high values mean tight binding; double strand, one strand shown; scale: fold enrichment (6-mer frequency, TF over GST control)", "values": [{"sequence": "GATCTA", "binding signal": 1.04}, {"sequence": "GCCCTG", "binding signal": 1.08}, {"sequence": "TCTGAG", "binding signal": 1.02}, {"sequence": "TTTCGT", "binding signal": 1.29}, {"sequence": "GATAGC", "binding signal": 0.974}, {"sequence": "AGAAGA", "binding signal": 0.961}, {"sequence": "CTTGGC", "binding signal": 1.2}, {"sequence": "ACACCA", "binding signal": 0.992}, {"sequence": "GCGCCG", "binding signal": 0.936}, {"sequence": "TAATGG", "binding signal": 1.29}, {"sequence": "CCTCAA", "binding signal": 1.47}, {"sequence": "AAGGCT", "binding signal": 1.03}, {"sequence": "TAAACC", "binding signal": 1.21}, {"sequence": "TGGGCA", "binding signal": 1.02}, {"sequence": "ACTGTA", "binding signal": 1.01}, {"sequence": "GTGTTG", "binding signal": 0.936}, {"sequence": "ATGTGG", "binding signal": 1.22}, {"sequence": "GTAATC", "binding signal": 1.16}, {"sequence": "CCACAG", "binding signal": 0.879}, {"sequence": "TTGGCA", "binding signal": 1.11}, {"sequence": "GACCAA", "binding signal": 0.956}, {"sequence": "TGAAAG", "binding signal": 1.03}, {"sequence": "CGCTGT", "binding signal": 0.919}, {"sequence": "ATGCTG", "binding signal": 1.01}, {"sequence": "GATGGA", "binding signal": 0.91}, {"sequence": "GGTTCT", "binding signal": 1.05}, {"sequence": "CGACGG", "binding signal": 0.945}, {"sequence": "ACGCGC", "binding signal": 1.16}, {"sequence": "ACCTAG", "binding signal": 0.97}, {"sequence": "TGCCGA", "binding signal": 1.12}, {"sequence": "CGAAGT", "binding signal": 0.901}, {"sequence": "CACCCT", "binding signal": 1.17}, {"sequence": "AGGGTT", "binding signal": 0.948}, {"sequence": "AAGGCA", "binding signal": 1.04}, {"sequence": "GTACTG", "binding signal": 1.05}, {"sequence": "CCAAGC", "binding signal": 1.01}, {"sequence": "ATAGAC", "binding signal": 0.94}, {"sequence": "TCGAAC", "binding signal": 0.986}, {"sequence": "TCTAAC", "binding signal": 1.21}, {"sequence": "GGTATG", "binding signal": 0.977}]}, {"molecular_target": "ETV1 (UniProt P50549)", "experiment": "DAPPL (digital affinity profiling via proximity ligation, sequencing)", "details": "10 mM Tris-HCl pH 7.5, 50 mM NaCl, 1 mM DTT, 4% glycerol, room temperature, 30 min; GST-TFs on glutathione beads, 16-mer random dsDNA library, 0.1% …; high values mean tight binding; double strand, one strand shown; scale: fold enrichment (6-mer frequency, TF over GST control)", "values": [{"sequence": "GATCTA", "binding signal": 0.967}, {"sequence": "GCCCTG", "binding signal": 0.933}, {"sequence": "TCTGAG", "binding signal": 0.924}, {"sequence": "TTTCGT", "binding signal": 1.38}, {"sequence": "GATAGC", "binding signal": 1.02}, {"sequence": "AGAAGA", "binding signal": 0.952}, {"sequence": "CTTGGC", "binding signal": 1.15}, {"sequence": "ACACCA", "binding signal": 0.976}, {"sequence": "GCGCCG", "binding signal": 0.914}, {"sequence": "TAATGG", "binding signal": 1.45}, {"sequence": "CCTCAA", "binding signal": 1.42}, {"sequence": "AAGGCT", "binding signal": 0.974}, {"sequence": "TAAACC", "binding signal": 1.23}, {"sequence": "TGGGCA", "binding signal": 0.908}, {"sequence": "ACTGTA", "binding signal": 1.02}, {"sequence": "GTGTTG", "binding signal": 0.88}, {"sequence": "ATGTGG", "binding signal": 1.12}, {"sequence": "GTAATC", "binding signal": 1.02}, {"sequence": "CCACAG", "binding signal": 0.916}, {"sequence": "TTGGCA", "binding signal": 1.18}, {"sequence": "GACCAA", "binding signal": 0.97}, {"sequence": "TGAAAG", "binding signal": 0.985}, {"sequence": "CGCTGT", "binding signal": 0.965}, {"sequence": "ATGCTG", "binding signal": 1.06}, {"sequence": "GATGGA", "binding signal": 0.916}, {"sequence": "GGTTCT", "binding signal": 1.01}, {"sequence": "CGACGG", "binding signal": 0.992}, {"sequence": "ACGCGC", "binding signal": 0.997}, {"sequence": "ACCTAG", "binding signal": 0.985}, {"sequence": "TGCCGA", "binding signal": 1.14}, {"sequence": "CGAAGT", "binding signal": 0.967}, {"sequence": "CACCCT", "binding signal": 1.24}, {"sequence": "AGGGTT", "binding signal": 1.01}, {"sequence": "AAGGCA", "binding signal": 1.1}, {"sequence": "GTACTG", "binding signal": 1.02}, {"sequence": "CCAAGC", "binding signal": 0.962}, {"sequence": "ATAGAC", "binding signal": 0.993}, {"sequence": "TCGAAC", "binding signal": 0.977}, {"sequence": "TCTAAC", "binding signal": 1.16}, {"sequence": "GGTATG", "binding signal": 0.948}]}]}
